Like-named read-outs stand apart in the source and are kept apart here. Results are given in words; binding and its absence hold for the method and conditions named. Binding seen in cells or lysates may run through a third protein. These calls come from enrichment with a bait or labelling near it, and not all partners need be listed. For some of these results: No binding means not detected with the bait. Where a sequence is shown, tags or fusion partners need not be part of it. One block for each molecule: values may come before it.
Assays:
[1] = biological target: T1, Myc/DDK tagged FBXO32 (UniProt Q969P5); experiment: affinity purification with mass spectrometry; tandem affinity purification of Myc/DDK-FBXO32 from cell lysate (2 mg; TRIS-HCl pH7.5 50 mM, NaCl 15 mM, Triton X-100 1%): anti-DDK immunoprecipitation, elution with DDK peptide, then anti-Myc immunoprecipitation, SDS-PAGE, nano-HPLC MS; parental cells as control; two experiments
T1 sequence: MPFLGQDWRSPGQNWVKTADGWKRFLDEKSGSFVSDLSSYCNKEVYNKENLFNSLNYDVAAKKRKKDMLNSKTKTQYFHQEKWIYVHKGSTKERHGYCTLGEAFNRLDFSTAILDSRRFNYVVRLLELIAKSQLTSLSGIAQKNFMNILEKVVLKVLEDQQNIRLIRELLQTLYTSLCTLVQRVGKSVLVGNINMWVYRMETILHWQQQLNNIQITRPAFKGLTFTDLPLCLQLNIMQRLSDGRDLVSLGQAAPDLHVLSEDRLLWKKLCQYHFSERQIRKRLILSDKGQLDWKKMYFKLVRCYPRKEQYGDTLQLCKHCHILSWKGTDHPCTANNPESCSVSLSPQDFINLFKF

Sequences of proteins named here, by UniProt entry; tags and fusion partners are left off.
UniProt P51532: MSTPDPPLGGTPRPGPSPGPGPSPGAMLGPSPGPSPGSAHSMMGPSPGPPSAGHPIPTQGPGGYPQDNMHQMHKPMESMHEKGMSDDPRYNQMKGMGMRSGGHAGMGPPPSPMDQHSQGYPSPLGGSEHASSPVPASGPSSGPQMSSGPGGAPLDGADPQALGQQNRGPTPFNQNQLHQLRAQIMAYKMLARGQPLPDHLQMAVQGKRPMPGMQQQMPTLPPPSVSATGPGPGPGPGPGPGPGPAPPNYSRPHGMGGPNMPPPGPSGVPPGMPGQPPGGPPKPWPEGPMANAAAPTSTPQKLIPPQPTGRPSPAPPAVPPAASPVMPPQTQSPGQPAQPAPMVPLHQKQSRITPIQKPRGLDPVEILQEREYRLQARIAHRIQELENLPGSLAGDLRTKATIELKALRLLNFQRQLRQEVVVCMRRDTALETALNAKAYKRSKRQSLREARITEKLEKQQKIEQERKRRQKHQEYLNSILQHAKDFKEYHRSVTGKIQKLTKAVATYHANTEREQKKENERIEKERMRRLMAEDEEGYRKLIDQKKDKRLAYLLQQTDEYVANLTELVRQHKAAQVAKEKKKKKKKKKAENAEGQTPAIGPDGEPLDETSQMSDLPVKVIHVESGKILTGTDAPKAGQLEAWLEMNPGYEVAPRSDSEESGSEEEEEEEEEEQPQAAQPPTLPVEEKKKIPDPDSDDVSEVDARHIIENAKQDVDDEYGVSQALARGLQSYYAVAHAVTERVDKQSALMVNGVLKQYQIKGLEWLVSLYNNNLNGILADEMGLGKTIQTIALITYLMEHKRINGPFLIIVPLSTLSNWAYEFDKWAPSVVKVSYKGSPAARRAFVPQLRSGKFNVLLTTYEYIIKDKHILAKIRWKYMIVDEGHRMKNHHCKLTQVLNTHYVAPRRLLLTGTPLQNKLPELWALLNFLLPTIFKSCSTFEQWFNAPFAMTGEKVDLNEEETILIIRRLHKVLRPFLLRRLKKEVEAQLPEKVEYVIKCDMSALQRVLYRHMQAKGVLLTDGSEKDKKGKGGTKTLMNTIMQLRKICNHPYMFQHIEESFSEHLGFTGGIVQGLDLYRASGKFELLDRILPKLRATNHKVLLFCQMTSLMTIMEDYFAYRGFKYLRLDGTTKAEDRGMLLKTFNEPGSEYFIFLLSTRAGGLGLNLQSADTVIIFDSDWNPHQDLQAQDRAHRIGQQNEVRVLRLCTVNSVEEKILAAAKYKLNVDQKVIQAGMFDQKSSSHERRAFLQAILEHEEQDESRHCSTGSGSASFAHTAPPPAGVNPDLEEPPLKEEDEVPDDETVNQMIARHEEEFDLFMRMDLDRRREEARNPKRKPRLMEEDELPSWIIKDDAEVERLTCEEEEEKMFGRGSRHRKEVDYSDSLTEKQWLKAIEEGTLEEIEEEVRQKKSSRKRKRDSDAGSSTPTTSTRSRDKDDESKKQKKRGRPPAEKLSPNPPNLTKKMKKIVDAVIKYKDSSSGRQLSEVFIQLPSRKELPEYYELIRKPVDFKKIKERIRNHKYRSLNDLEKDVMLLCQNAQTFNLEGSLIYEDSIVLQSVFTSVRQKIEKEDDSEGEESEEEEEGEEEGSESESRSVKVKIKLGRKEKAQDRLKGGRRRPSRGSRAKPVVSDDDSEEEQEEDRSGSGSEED
UniProt O60264: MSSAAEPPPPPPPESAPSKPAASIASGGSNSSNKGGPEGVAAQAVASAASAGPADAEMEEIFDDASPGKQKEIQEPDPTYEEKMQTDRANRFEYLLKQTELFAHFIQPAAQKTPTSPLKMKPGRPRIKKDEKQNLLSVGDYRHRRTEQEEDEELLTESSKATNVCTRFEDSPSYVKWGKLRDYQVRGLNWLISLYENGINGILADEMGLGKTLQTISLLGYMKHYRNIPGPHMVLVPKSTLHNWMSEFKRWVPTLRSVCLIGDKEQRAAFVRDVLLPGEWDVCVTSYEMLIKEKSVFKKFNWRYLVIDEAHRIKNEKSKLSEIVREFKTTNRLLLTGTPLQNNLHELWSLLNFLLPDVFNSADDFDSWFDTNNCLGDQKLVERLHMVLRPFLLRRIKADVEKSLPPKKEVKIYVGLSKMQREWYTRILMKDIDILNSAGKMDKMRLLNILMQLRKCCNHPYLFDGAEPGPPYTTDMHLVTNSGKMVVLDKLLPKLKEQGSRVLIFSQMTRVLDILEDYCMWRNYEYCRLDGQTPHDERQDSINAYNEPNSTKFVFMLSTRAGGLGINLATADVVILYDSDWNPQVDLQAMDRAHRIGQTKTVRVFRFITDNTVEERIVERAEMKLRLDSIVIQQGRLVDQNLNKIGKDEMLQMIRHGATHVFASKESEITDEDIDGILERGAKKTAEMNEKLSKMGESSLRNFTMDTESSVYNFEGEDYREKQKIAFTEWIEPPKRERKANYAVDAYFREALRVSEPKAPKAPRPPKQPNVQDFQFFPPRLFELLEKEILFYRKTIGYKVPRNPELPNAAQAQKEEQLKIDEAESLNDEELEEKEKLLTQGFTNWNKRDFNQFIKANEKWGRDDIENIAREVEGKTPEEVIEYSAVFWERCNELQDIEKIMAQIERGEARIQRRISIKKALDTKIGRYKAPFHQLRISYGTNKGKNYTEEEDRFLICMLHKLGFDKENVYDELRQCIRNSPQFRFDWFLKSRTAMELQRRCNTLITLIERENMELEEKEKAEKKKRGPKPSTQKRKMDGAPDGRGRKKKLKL
UniProt Q96GM5: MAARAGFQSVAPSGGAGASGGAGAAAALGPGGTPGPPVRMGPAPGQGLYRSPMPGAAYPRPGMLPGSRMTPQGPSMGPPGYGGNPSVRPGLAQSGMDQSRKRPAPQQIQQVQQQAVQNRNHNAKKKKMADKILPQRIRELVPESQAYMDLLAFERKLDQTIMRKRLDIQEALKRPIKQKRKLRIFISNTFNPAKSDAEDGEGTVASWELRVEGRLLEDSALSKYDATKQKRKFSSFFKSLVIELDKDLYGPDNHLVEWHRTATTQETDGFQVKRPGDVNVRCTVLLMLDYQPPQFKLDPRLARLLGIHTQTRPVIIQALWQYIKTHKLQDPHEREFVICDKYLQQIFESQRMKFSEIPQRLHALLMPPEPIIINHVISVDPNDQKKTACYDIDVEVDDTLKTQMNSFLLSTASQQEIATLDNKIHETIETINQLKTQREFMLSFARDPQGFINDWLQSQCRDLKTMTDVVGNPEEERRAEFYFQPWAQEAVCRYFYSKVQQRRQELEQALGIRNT

[2] = biological target: T1, Myc/DDK tagged FBXO32; experiment: as above; remark: listed apart in the source

binding [1]: binds
Molecule: SMARCA4 (BRG1) (from UniProt P51532 1-1647)

binding [1]: binds
Molecule: SMARCA5 (from UniProt O60264 1-1052)

binding [1]: binds
Molecule: SMARCD1 (BAF60a) (from UniProt Q96GM5 1-515)

binding [2]: no binding
B1: REST (protein, UniProt Q13127 1-1097)
chain: MATQVMGQSSGGGGLFTSSGNIGMALPNDMYDLHDLSKAELAAPQLIMLANVALTGEVNGSCCDYLVGEERQMAELMPVGDNNFSDSEEGEGLEESADIKGEPHGLENMELRSLELSVVEPQPVFEASGAPDIYSSNKDLPPETPGAEDKGKSSKTKPFRCKPCQYEAESEEQFVHHIRVHSAKKFFVEESAEKQAKARESGSSTAEEGDFSKGPIRCDRCGYNTNRYDHYTAHLKHHTRAGDNERVYKCIICTYTTVSEYHWRKHLRNHFPRKVYTCGKCNYFSDRKNNYVQHVRTHTGERPYKCELCPYSSSQKTHLTRHMRTHSGEKPFKCDQCSYVASNQHEVTRHARQVHNGPKPLNCPHCDYKTADRSNFKKHVELHVNPRQFNCPVCDYAASKKCNLQYHFKSKHPTCPNKTMDVSKVKLKKTKKREADLPDNITNEKTEIEQTKIKGDVAGKKNEKSVKAEKRDVSKEKKPSNNVSVIQVTTRTRKSVTEVKEMDVHTGSNSEKFSKTKKSKRKLEVDSHSLHGPVNDEESSTKKKKKVESKSKNNSQEVPKGDSKVEENKKQNTCMKKSTKKKTLKNKSSKKSSKPPQKEPVEKGSAQMDPPQMGPAPTEAVQKGPVQVEPPPPMEHAQMEGAQIRPAPDEPVQMEVVQEGPAQKELLPPVEPAQMVGAQIVLAHMELPPPMETAQTEVAQMGPAPMEPAQMEVAQVESAPMQVVQKEPVQMELSPPMEVVQKEPVQIELSPPMEVVQKEPVKIELSPPIEVVQKEPVQMELSPPMGVVQKEPAQREPPPPREPPLHMEPISKKPPLRKDKKEKSNMQSERARKEQVLIEVGLVPVKDSWLLKESVSTEDLSPPSPPLPKENLREEASGDQKLLNTGEGNKEAPLQKVGAEEADESLPGLAANINESTHISSSGQNLNTPEGETLNGKHQTDSIVCEMKMDTDQNTRENLTGINSTVEEPVSPMLPPSAVEEREAVSKTALASPPATMAANESQEIDEDEGIHSHEGSDLSDNMSEGSDDSGLHGARPVPQESSRKNAKEALAVKAAKGDFVCIFCDRSFRKGKDYSKHLNRHLVNVYYLEEAAQGQE

From publication PMC8184796
